From article PMC12485133
No constants are given. Whether binding was seen depends on the method and setting. Some entries that bind do so weakly or less than the wild type.

Chains of the proteins cited; added tags and fusions are not shown. Lines headed by an entry give the natural chain unless they say otherwise; changes in a name come on top. Residues count along the entry.
UniProt P84077: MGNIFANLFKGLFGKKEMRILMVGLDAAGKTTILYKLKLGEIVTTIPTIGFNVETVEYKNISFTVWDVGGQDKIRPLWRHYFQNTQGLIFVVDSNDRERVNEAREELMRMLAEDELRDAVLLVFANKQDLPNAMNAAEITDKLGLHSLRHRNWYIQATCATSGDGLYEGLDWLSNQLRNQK
UniProt Q9QWY8, residues 339-451: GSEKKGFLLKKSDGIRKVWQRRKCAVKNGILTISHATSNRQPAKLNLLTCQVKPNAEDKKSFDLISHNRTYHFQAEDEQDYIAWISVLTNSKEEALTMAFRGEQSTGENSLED

Target: N-myristoylated human Arf1 bound to GTPγS, anchored on nanodiscs (myrArf1·GTPγS) (human) (UniProt P84077)
Assay: NMR titration; 1H-13C methyl HMQC (and 1H-15N) spectra of labelled myrArf1·GTPγS with 2H or 1H PH, or of labelled PH with myrArf1, on MSPΔH5 nanodiscs (PC:PI(4,5)P2 95:5), ratio 1:1.2, 25 °C, 20 mM Tris-HCl pH 7.4, 150 mM NaCl, 1 mM MgCl2, 0.5 mM TCEP; CSPs, broadening, intensity ratios with 1H against 2H PH; both purified

## ΔN14 ASAP1 PH domain, [339-451]ASAP1 (from UniProt Q9QWY8 339-451) (domain or fragment)
  binding: binds
